Results are given in words; binding and its absence hold for the method and conditions named. In cells and extracts the contact can be indirect. Some binding calls cover weakened binding; strength is not graded here.
Biological target: transcription factor Sp1 (human (endogenous in U2OS)) (UniProt P08047)
Assay: co-IP

By UniProt entry, the sequences of proteins in these tests, tags left out.
UniProt P08047: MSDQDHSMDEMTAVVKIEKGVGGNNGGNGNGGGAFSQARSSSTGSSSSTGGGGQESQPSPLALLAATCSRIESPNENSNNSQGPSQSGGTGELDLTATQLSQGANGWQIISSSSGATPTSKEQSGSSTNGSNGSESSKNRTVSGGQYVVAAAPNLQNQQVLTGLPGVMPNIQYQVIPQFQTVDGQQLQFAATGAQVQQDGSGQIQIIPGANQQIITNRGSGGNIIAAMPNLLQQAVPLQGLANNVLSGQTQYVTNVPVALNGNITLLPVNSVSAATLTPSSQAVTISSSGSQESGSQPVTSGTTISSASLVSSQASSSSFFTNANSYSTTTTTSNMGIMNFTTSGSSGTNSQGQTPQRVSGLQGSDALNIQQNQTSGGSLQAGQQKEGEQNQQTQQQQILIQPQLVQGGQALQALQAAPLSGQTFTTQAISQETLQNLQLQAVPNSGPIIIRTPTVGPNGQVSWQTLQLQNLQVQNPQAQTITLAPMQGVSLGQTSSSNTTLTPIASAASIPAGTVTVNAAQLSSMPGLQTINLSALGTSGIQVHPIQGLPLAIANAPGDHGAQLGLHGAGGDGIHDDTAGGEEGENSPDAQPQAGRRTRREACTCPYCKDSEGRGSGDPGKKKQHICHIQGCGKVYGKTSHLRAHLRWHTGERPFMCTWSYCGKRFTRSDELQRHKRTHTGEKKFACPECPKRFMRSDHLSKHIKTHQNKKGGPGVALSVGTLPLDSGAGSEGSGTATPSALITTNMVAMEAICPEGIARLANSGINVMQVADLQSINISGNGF
UniProt Q16666: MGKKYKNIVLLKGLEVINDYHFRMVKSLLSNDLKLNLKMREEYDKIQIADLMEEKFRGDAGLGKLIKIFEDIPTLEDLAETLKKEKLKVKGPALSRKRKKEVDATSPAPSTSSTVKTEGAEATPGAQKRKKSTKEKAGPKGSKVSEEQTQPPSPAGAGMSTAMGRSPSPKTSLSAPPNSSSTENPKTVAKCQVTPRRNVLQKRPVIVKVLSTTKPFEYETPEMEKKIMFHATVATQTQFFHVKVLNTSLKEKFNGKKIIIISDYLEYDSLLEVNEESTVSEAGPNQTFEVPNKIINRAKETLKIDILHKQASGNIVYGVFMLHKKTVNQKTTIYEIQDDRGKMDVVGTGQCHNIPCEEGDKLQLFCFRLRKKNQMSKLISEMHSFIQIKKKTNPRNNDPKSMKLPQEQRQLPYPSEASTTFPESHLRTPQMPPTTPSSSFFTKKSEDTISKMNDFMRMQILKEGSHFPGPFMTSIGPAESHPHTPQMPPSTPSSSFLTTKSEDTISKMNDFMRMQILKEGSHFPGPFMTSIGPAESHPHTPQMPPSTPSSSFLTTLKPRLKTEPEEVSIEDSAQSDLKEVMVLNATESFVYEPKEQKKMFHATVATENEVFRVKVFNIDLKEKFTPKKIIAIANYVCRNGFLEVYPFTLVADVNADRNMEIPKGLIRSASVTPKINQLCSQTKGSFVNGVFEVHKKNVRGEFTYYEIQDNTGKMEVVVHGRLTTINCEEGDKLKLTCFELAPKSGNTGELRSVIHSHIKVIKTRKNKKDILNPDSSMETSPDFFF

- binding: binds
Substance: interferon-ɣ inducible factor 16 (IFI16) (from UniProt Q16666 1-785)
